Results are given in words; binding and its absence hold for the method and conditions named. Some entries that bind do so weakly or less than the wild type.

The target in test [1] is recombinant cynomolgus monkey CD39 (cynomolgus monkey). Nature of the test: BLI, AHC biosensor.
The target is the same in test [2]. Nature of the test: BLI.

B1: anti-CD39 antibody clone 22 (antibody, human IgG4 S228P, kappa, V domains shown)
VH: QVQLVQSGAEVKKPGSSVKVSCKASGGTFSSEGISWVRQAPGQGLEWMGSILPIFGTANYAQKFQGRVTITADESTSTAYMELSSLRSEDTAVYYCAREAGYYRYRYFDLWGRGTLVTVSS
VL: EIVMTQSPATLSVSPGERATLSCRASQSVSSNLAWYQQKPGQAPRLLIYGASTRATGIPARFSGSGSGTEFTLTISSLQSEDFAVYYCQQHALWPLTFGGGTKVEIKR
On to B1, for which the binding entry in test [1] and in test [2] was “binds” each time.
